From patent publication US20190134039A1, “ANTIVIRAL JAK INHIBITORS USEFUL IN TREATING OR PREVENTING RETROVIRAL AND OTHER VIRAL INFECTIONS” (EMORY UNIVERSITY, priority 2011, published 2019)
At least one compound was matched to its structure with a doubt left.

Experiments:
[1] = system: HIV-1LAI; conditions: PBM cells
From the text: PBM cells were isolated as follows: Lymphocytes were isolated from buffy coats derived from healthy donors obtained from Life South Laboratories (Dunwoody, Ga.). Activated lymphocytes were maintained for 72 hrs in medium that was supplemented with […] phytohemagglutinin (PHA) (Cape Cod associates, East Falmouth, Mass.). Media was comprised of RPMI media supplemented with 20% fetal calf serum, 1% penicillin/streptomyocin and 2% L-glutamine (Sigma Aldrich, San Jose, Calif.).
PBM cell infections: Testing was performed in duplicate with at least 3 independent assays. Cells were incubated in RPMI medium (HyClone, Logan, Utah) containing HR-IL2 (26.5 units/ml) and 20% fetal calf serum. Infections were performed by adding HIV-1LA1 followed by a further incubation at 37° C., 5% CO2, 1 hr prior to addition of drugs. Assays were performed in 24 well plates (BD Biosciences, Franklin Lakes, N.J.). One ml of supernatant was collected after 5 days in culture and then centrifuged at 12,000 rpm for 2 hr at 4° C. in a Jouan Br43i (Thermo Electron Corp., Marietta, Ohio). The product of the RT assay was quantified using a Packard harvester and direct beta counter and the data were analyzed as previously described (Schinazi et al, 1990).

[2] = system: HIV-1BaL; conditions: MØ cells
Protocol: Macrophages were isolated as follows: Monocytes were isolated from buffy coats of HIV-1 negative, HBV/HCV-negative donors with density gradient centrifugation coupled with enrichment for CD14+ monocytes with Rosette Sep antibody cocktail (Stem Cell Technologies, Vancouver, British Columbia). Cells were seeded at a concentration of 1.0×10^6 cells/well for 1 hr at 37° C. and 5% CO2 to confer plastic adherence prior to repeated washes with 1×PBS. Macrophages were maintained in medium containing 100 U/ml macrophage colony-stimulating factor (m-CSF, R&D Systems, Minneapolis, Minn.), supplemented with 20% fetal calf serum (Atlanta Biologicals, Lawrenceville, Ga.) and 1% penicillin/streptomyocin (Invitrogen, Carlsbad, Calif.) for 7 days (37° C., 5% CO2) prior to testing.
Macrophage infections: Macrophages were cultured as described above for 7 days. […] 4 hrs after infection, virus was removed and drug-containing medium was returned to the cultures. Supernatants were collected on day 7 post-infection and HIV-1 p24 was quantified via ELISA (Zeptometrix Corporation, Buffalo, N.Y.). EC50 analysis was performed using CalcuSyn software (BioSoft Corporation, Cambridge, UK).

[3] = system: pSTAT1; conditions: primary CD4+T lymphocytes
[4] = system: pSTAT3; conditions: primary CD4+T lymphocytes
[5] = system: pSTAT5; conditions: primary CD4+T lymphocytes

N#CC[C@H](C1CCCC1)n1cc(-c2ncnc3[nH]ccc23)cn1 [Jakafi, Ruxolitinib]
sub-micromolar: inhibition of HIV-1 replication [1] | inhibition of HIV-1 replication [2] | concentrations inhibiting IFN-α induced phosphorylation of STAT1 [3] | concentrations inhibiting IFN-α induced phosphorylation of STAT3 [4] | concentrations inhibiting IFN-α induced phosphorylation of STAT5 [5]
